Taken from: PubChem BioAssay AID652259 (Drosophila RNAi Screening Center, 2013)
Screen: 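Knock-downs that push a Wingless-driven reporter up or down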 (primary screen). Cells: Drosophila clone 8 imaginal disc epithelial cells. Reagents: long dsRNA against Drosophila genes. Treatment: pathway stimulated by co-transfected Wingless expression plasmid. Measurement: 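Firefly luciferase from a tcf-site Wingless reporter, measured alongside co-transfected Renilla luciferase that tracks transfection; pathway stimulated by a Wingless plasmid; the firefly-to-Renilla ratio is not deposited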. Direction: firefly reporter light: higher = more Wg reporter light, before normalisation; Renilla control light: higher = more transfected or surviving cells. Rule for the call: 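Strong candidates differ from their plate mean by at least two out of four per-plate statistical tests; weak candidates meet just one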. Meaning of the calls: active = candidate regulator (raises or lowers reporter); inactive = not a candidate.
The deposit covers about 22,000 reagents; below is a random part of those with a known target gene and a result. Of all reagents, 233 (1.1%) were called active. 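Light values are raw, unnormalised plate reads; the ratio scores behind the reporter calls were not deposited.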 Reagents against one gene are numbered here. Names joined by + are all predicted targets of the reagent. Not given: the amount of reagent, the time to read-out, the dose of the treatment.

gene knocked down | reagent | reporter change call, replicate 1 | firefly reporter light, replicate 1 | firefly reporter light, replicate 2 | Renilla control light, replicate 1 | Renilla control light, replicate 2 | Call
Ncc69 | 1 | – | 7332 | – | 3617 | – | inactive
Ncc69 | 2 | – | 8769 | – | 3018 | – | inactive
CG14892 | 1 | – | 12343 | – | 3244 | – | inactive
Reepl1 | 1 | – | 31820 | – | 12838 | – | inactive
MAN1 | 1 | – | 11137 | – | 3724 | – | inactive
Pkc98E | 1 | – | 3552 | 4907 | 1377 | 743 | inactive
CG10338 | 1 | – | 2966 | 4684 | 361 | 2592 | inactive
stnB + stnA | 1 | – | 1788 | – | 1181 | – | inactive
stnB + stnA | 2 | – | 13926 | – | 7975 | – | inactive
MED21 | 1 | – | 22033 | – | 14808 | – | inactive
CG30392 | 1 | – | 4.07e5 | 4.04e5 | 1.24e5 | 1.17e5 | inactive
CG7730 | 1 | – | 7895 | – | 2695 | – | inactive
Arr2 | 1 | – | 1373 | 5450 | 1074 | 3249 | inactive
thr | 1 | – | 8711 | – | 1177 | – | inactive
CG15458 | 1 | – | 11440 | – | 6912 | – | inactive
shf | 1 | – | 15541 | – | 7652 | – | inactive
CG14961 | 1 | – | 6928 | – | 2569 | – | inactive
E(spl)mgamma-HLH | 1 | – | 27634 | – | 22408 | – | inactive
RpL10 | 1 | – | 9764 | – | 3049 | – | inactive
CG32640 + CG32641 | 1 | – | 6.39e5 | 5.69e5 | 58225 | 100 | inactive
hyx | 1 | – | 6041 | – | 1793 | – | inactive
Muc11A | 1 | – | 20905 | – | 10310 | – | inactive
ncd | 1 | – | 1744 | 4541 | 744 | 1147 | inactive
mrt | 1 | – | 4896 | – | 3931 | – | inactive
CG15814 | 1 | – | 2024 | 9008 | 961 | 3367 | inactive
nht | 1 | – | 4612 | 9128 | 1698 | 4880 | inactive
wdb | 1 | – | 7163 | – | 2356 | – | inactive
CG43322 | 1 | – | 2617 | 4273 | 928 | 1814 | inactive
CG10343 | 1 | – | 2288 | 7713 | 257 | 3858 | inactive
mam | 1 | – | 11575 | – | 10000 | – | inactive
mam | 2 | Wg reporter activity raised | 8657 | – | 698 | – | active
CG9674 | 1 | – | 6224 | – | 2211 | – | inactive
CG9674 | 2 | – | 5176 | – | 2358 | – | inactive
slbo | 1 | – | 3853 | 11232 | 918 | 3162 | inactive
alka | 1 | – | 3491 | 8203 | 793 | 2440 | inactive
ATPsyngamma | 1 | – | 5622 | – | 1817 | – | inactive
CG17127 | 1 | – | 2660 | 7178 | 1163 | 4274 | inactive
TFAM | 1 | – | 1970 | 5488 | 739 | 1220 | inactive
mAcon2 | 1 | – | 13209 | – | 4148 | – | inactive
RpL36A | 1 | Wg reporter activity raised | 11366 | 3896 | 2400 | 932 | inactive
Dll | 1 | – | 2201 | 6180 | 541 | 2272 | inactive
DCX-EMAP | 1 | – | 4944 | – | 2244 | – | inactive
DCX-EMAP | 2 | Wg reporter activity raised | 6978 | – | 1194 | – | active
MESK2 | 1 | – | 2233 | 6496 | 1185 | 2439 | inactive
CG13022 | 1 | – | 7027 | – | 3088 | – | inactive
Fas3 | 1 | – | 21808 | – | 10937 | – | inactive
Fas3 | 2 | – | 1936 | 5689 | 673 | 2196 | inactive
Fas3 | 3 | – | 4.90e5 | 4.51e5 | 1.90e5 | 1.23e5 | inactive
sturkopf | 1 | – | 11515 | – | 3328 | – | inactive
CG34150 | 1 | – | 6112 | – | 2036 | – | inactive
Ndg | 1 | – | 9653 | – | 2961 | – | inactive
CG43707 | 1 | – | 3491 | 11623 | 1408 | 4018 | inactive
CG43707 | 2 | – | 6.11e5 | 4.64e5 | 2.64e5 | 2.53e5 | inactive
CG43707 | 3 | – | 4.52e5 | 5.04e5 | 1.42e5 | 1.01e5 | inactive
Apt1 | 1 | – | 8312 | – | 2454 | – | inactive
CG3407 | 1 | – | 6217 | – | 4858 | – | inactive
Cyp6t1 | 1 | – | 19137 | – | 14208 | – | inactive
kermit | 1 | – | 9307 | – | 2064 | – | inactive
nSyb | 1 | – | 17754 | – | 3080 | – | inactive
nSyb | 2 | – | 7.18e5 | 7.17e5 | 2.74e5 | 1.81e5 | inactive
ImpL1 | 1 | – | 4874 | – | 1563 | – | inactive
Nxf3 | 1 | – | 2.80e5 | 2.90e5 | 1.46e5 | 1.07e5 | inactive
CG13051 | 1 | – | 11115 | – | 4867 | – | inactive
tplus3a + tplus3b | 1 | – | 13984 | – | 8100 | – | inactive
CG17580 | 1 | – | 7833 | – | 2672 | – | inactive
Dad | 1 | – | 2269 | 9652 | 1074 | 2673 | inactive
CG13097 | 1 | – | 7562 | – | 2512 | – | inactive
Spn38F | 1 | – | 4685 | 9187 | 1217 | 3212 | inactive
rin | 1 | Wg reporter activity raised | 24332 | – | 1433 | – | active
pippin | 1 | – | 17675 | – | 5222 | – | inactive
Vha36-3 | 1 | – | 13701 | – | 16903 | – | inactive
FMRFaR | 1 | – | 5755 | – | 2633 | – | inactive
PIG-C | 1 | – | 4369 | – | 2018 | – | inactive

7 entries from above, reformatted:
DCX-EMAP #1
- firefly reporter light, replicate 1: 4944
- Renilla control light, replicate 1: 2244
- Call: inactive

DCX-EMAP #2
- reporter change call, replicate 1: Wg reporter activity raised
- firefly reporter light, replicate 1: 6978
- Renilla control light, replicate 1: 1194
- Call: active

MESK2
- firefly reporter light, replicate 1: 2233
- firefly reporter light, replicate 2: 6496
- Renilla control light, replicate 1: 1185
- Renilla control light, replicate 2: 2439
- Call: inactive

CG13022
- firefly reporter light, replicate 1: 7027
- Renilla control light, replicate 1: 3088
- Call: inactive

Fas3 #1
- firefly reporter light, replicate 1: 21808
- Renilla control light, replicate 1: 10937
- Call: inactive

Fas3 #2
- firefly reporter light, replicate 1: 1936
- firefly reporter light, replicate 2: 5689
- Renilla control light, replicate 1: 673
- Renilla control light, replicate 2: 2196
- Call: inactive

Fas3 #3
- firefly reporter light, replicate 1: 4.90e5
- firefly reporter light, replicate 2: 4.51e5
- Renilla control light, replicate 1: 1.90e5
- Renilla control light, replicate 2: 1.23e5
- Call: inactive
